Results: PubChem BioAssay AID588497 (NMMLSC, 2011)
In all, about 360,000 compounds went through this assay and about 780 (0.22%) were called active. This list was built around the results that the source calls inconclusive (neither active nor inactive); the mix of calls is not that of the screen. No stated cut-off is given here; in the data, active means inhibition above about 35% (passing the limit was not always enough); inconclusive means no clear call, values can overlap the other calls.

system: Botulinum neurotoxin type F light chain protease (Clostridium botulinum); test: BoNT/F light chain protease inhibitors, primary screen, biochemical, flow cytometry, MLPCN library (AID 588497); details: Multiplex microsphere protease cleavage assay, at 10 µM, hits give high values; further: plate controls were buffer without enzyme for full effect and enzyme alone for no effect

Row | Compound | inhibition
1 | COc1ccc(N(CC(=O)Nc2cccc(C)c2C)S(=O)(=O)c2c(C)n[nH]c2C)cc1 | inactive: -0.8%
2 | COc1cc(O)c(C(CCN2CCCC2)c2ccc3c(c2)OCO3)c(OC)c1 (configuration not stated) | inactive: -1.3%
3 | CCC(=NCCc1ccccc1)c1c(O)n(C)c(=O)n(C)c1=O | inconclusive: 23.2%
4 | O=C(Nc1cnn(Cc2c(Cl)cccc2Cl)c1)c1ccc([N+](=O)[O-])cc1 | inconclusive: -3.5%
5 | CC(=O)Nc1ccc(C2Nc3cc(C)c(C)cc3NC3=C2C(=O)CC(C)(C)C3)cc1 (configuration not stated) | inconclusive: 27.1%
6 | CC1C(=O)C(C)C(c2cc(Cl)ccc2O)NC1c1cc(Cl)ccc1O (configuration not stated) | inconclusive: 0.6%
7 | Cc1cccn2c(=O)c3cc(C#N)c(=NC(=O)c4cccs4)n(CC(C)C)c3nc12 | inconclusive: -15.6%
8 | O=c1c2ccccc2cnn1Cc1n[nH]c(=S)n1-c1ccccc1F | inconclusive: -334%
9 | CCC(C)[C@H](NC(=O)NCCCOC(C)C)C(=O)OC (some centres not stated) | inconclusive: 12.1%
10 | CCCCOc1ccc(S(=O)(=O)N2CCN(C)CC2)cc1 | inconclusive: -6.4%
11 | Cc1nn(CC(=O)N/N=C/c2ccc(F)cc2)c(C)c1[N+](=O)[O-] | inconclusive: -26.5%
12 | CCN1CCSc2ccc(C(=O)Nc3ccc(NC(C)=O)cc3)cc21 | inactive: -4.6%
13 | O=C(Nc1ccccc1)c1cc(C2CCCCN2S(=O)(=O)c2ccc(F)cc2F)on1 (configuration not stated) | inactive: -1%
14 | COc1ccc(-c2ccc(=O)n(Cc3ccccc3)n2)cc1 | inconclusive: -4.6%
15 | COc1ccc(-c2cn3nc4c(nc3n2)CCCC4)cc1 | inconclusive: -22.6%
16 | COc1ccc(-n2c(/C=C/c3ccc(O)c(OC)c3)nc3ccccc3c2=O)cc1 | active: 35.8%
17 | CCCCc1ccc2[nH]cc(CCN)c2c1 | inactive: -21.7%
18 | CCN(CC(=O)Nc1ccccc1OC)C(=O)/C=C/c1cccs1 | inconclusive: 7%
19 | CCCCC(=O)Nc1ccc(C2C(=O)c3ccccc3C2=O)cc1 | inconclusive: 0.3%
20 | COc1ccc(CCN2C(=O)CC(N3CCN(C/C=C/c4ccccc4)CC3)C2=O)cc1OC (configuration not stated) | inconclusive: 81.4%
21 | COc1ccc(S(=O)(=O)NCC2CCCN(Cc3ccc(O)cc3)C2)cc1 (configuration not stated) | inactive: -3.6%
22 | CN1CCN(c2nc3ccccn3c(=O)c2/C=C(\C#N)S(=O)(=O)c2ccccc2)CC1 | inconclusive: -10%
23 | O=C(Nc1ccccc1)c1c(F)cccc1F | inactive: -4.6%

Row | Compound | inhibition
24 | CCOC(=O)N1CCN(c2nc3c(C)cccn3c(=O)c2C=O)CC1 | inconclusive: 1.1%
25 | Cc1ccc(S(=O)(=O)Oc2ccc(/C=N/NC(=O)c3cccnc3)cc2)cc1 | inactive: -1.2%
26 | Cc1ccnc(NCc2c(O)ccc3ccccc23)c1 | inconclusive: -70.7%
27 | O=c1c[n+]([O-])c2ccccc2n1OCc1c(F)cccc1F | inconclusive: 14.6%
28 | COc1ccccc1/C=C/C=NC1C(=O)N(c2ccccc2)[N+](C)=C1C (configuration not stated) | inconclusive: 32.4%
29 | O=C(/C=C/c1ccccc1)NC1CC2CCC1C2 (configuration not stated) | inactive: 0.6%
30 | CCC(Oc1ccccc1)C(=O)Nc1ccc(S(=O)(=O)NCC2CCCO2)cc1 (configuration not stated) | inactive: 0.6%
31 | Cc1ccc(S(=O)(=O)N2CCCC(C)C2)cc1 (configuration not stated) | inconclusive: 15.5%
32 | CCNS(=O)(=O)c1ccc(CCC(=O)NCc2ccc3c(c2)OCO3)cc1 | inconclusive: -27.4%
33 | CN(C)S(=O)(=O)c1cccc(NC(=O)c2cccc(S(=O)(=O)N3CCCCC3)c2)c1 | inconclusive: -14.5%
34 | Cc1cccc(NC(=O)c2cc(-c3cc(C)cc(C)c3O)n[nH]2)c1 | inactive: 24.9%
35 | CC(C)(C)OC(=O)NCCCCCc1nnc(SCC(N)=O)o1 | inactive: -7.9%
36 | CCCCCCCC(=O)NC1=NC(=O)C(C)(C)S1 | inconclusive: 5.7%
37 | Cc1[nH]c2ccc3ccccc3c2c(=O)c1C/C=C/Cl | inconclusive: 12.4%
38 | Cc1ccc2c(c1)/C(=N/OS(=O)(=O)c1ccccc1)CCS2 | inconclusive: -14.5%
39 | Cc1oc2c(c(C)cc3oc(=O)c(CC(=O)N[C@@H](C)C(=O)O)c(C)c32)c1C | inactive: 25.7%
40 | C=CCOC(=O)C1=C(C)N=C2SCCC(=O)N2C1c1cccs1 (configuration not stated) | inconclusive: -13%
41 | CCc1nnc(NC(=O)c2ccc(C)o2)s1 | inactive: 4.1%
42 | O=c1[nH]cc(S(=O)(=O)N2CCN(c3ccccc3F)CC2)c(=O)[nH]1 | inactive: 3.6%
43 | CC1=C(C#N)C(C)(C)C(C#N)=C(C)N1 | inactive: -1.3%
44 | CC1Cc2cc(/C(O)=C3/C(=O)C(=O)N(CCCn4ccnc4)C3c3cccnc3)ccc2O1 (configuration not stated) | inactive: -5%
45 | CC(C)S(=O)(=O)c1cnc(-c2cccnc2)nc1N | inconclusive: 151%
46 | CC(Oc1ccc(Br)cc1Cl)C(=O)Nc1ccncc1 (configuration not stated) | inconclusive: -8.9%

Row | Compound | inhibition
47 | CC(=O)SC(C)CC(=O)Nc1ccccc1 (configuration not stated) | inconclusive: -24.6%
48 | CC(=O)c1cc2c(cc1NC(=O)CN1CCCCCCC1)OCO2 | inactive: -6.7%
49 | O=C(O)/C=C/C(=O)Nc1ccc(-n2nccc2C(F)(F)F)cc1 | inconclusive: -6.2%
50 | O=C(O)c1cncc(C#CCC2CCCCC2)c1 | inconclusive: -79.9%
51 | Cc1cccc(NC(=O)CCS(=O)(=O)c2ccccc2)c1 | inconclusive: -3.4%
52 | CC(=NCc1ccc2c(c1)OCO2)c1c(O)n(-c2ccc(C)cc2)c(=O)[nH]c1=O | inconclusive: -10.7%
53 | Cn1c(=O)c(S(=O)(=O)C(C)(C)C)c(O)c2ccccc21 | inactive: -5.9%
54 | COc1ccccc1OCCOc1ccc(/C=C2\C(=N)N3N=C(C)SC3=NC2=O)cc1 | inconclusive: 2.1%
55 | CC1(C)CC(=O)C=C(Nc2ccccc2N)C1 | inconclusive: -0.6%
56 | N#CCCN(C(=S)NC(=O)C1CCCCC1)c1ccccc1F | inactive: 2.8%
57 | CC1(C)Cc2nc(Cl)c(C(N)=O)cc2CO1 | inconclusive: -44.3%
58 | O=C/C(=C\Nc1ccccn1)c1nc2cc(Cl)ccc2o1 | inactive: 2.2%
59 | CCc1nnc(NC(=O)/C=C/c2ccco2)s1 | active: 44.1%
60 | COC(=O)C1=C(O)C2(C(=O)O)CC(C(=O)OC)=C(O)C(C(=O)O)(C1)C2 | inconclusive: -119%
61 | CCn1cc(/C=C(\NC(=O)c2ccc(C)cc2)C(=O)NCCCN2CCOCC2)c2ccccc21 | inactive: 4.8%
62 | CCCC[C@@H]1Cc2[nH][nH]c(=O)c2[C@H](c2cccc3ccccc23)O1 | inactive: -4.6%
63 | COCc1cc(=O)[nH]c(/N=C(\N)Nc2c(F)cccc2F)n1 | inconclusive: 127%
64 | O=C(c1ccco1)N1CCN(C(c2ccc(Cl)cc2)c2nnnn2CC2CCCO2)CC1 (configuration not stated) | inconclusive: -1.5%
65 | Fc1ccc(-c2cn3ccccc3n2)cc1 | inconclusive: -35.2%
66 | CCc1noc(C)c1C(=O)OCC(=O)c1ccccc1OC | inactive: 4.6%
67 | Cc1nc(CSc2n[nH]c(=O)n2-c2ccccc2)cs1 | inconclusive: 15.5%
68 | CN1C(=O)c2ccccc2CC12c1ccccc1C(=O)N2C (configuration not stated) | inactive: 2.6%
69 | Cc1ccc(Nc2nc(N)nc(CCl)n2)c(C)c1 | inconclusive: -30.2%

4 compounds drawn at random from the list so far, as already listed:
Row | Compound | inhibition
2 | COc1cc(O)c(C(CCN2CCCC2)c2ccc3c(c2)OCO3)c(OC)c1 (configuration not stated) | inactive: -1.3%
11 | Cc1nn(CC(=O)N/N=C/c2ccc(F)cc2)c(C)c1[N+](=O)[O-] | inconclusive: -26.5%
49 | O=C(O)/C=C/C(=O)Nc1ccc(-n2nccc2C(F)(F)F)cc1 | inconclusive: -6.2%
43 | CC1=C(C#N)C(C)(C)C(C#N)=C(C)N1 | inactive: -1.3%

Next entries.

Row | Compound | inhibition
70 | Cc1onc(-c2ccccc2)c1C(=O)N1CCN(C/C=C/c2ccccc2)CC1 | inactive: -2.1%
71 | COc1cc(/C=N/Nc2cc(C)nc(N)n2)ccc1O | inactive: -6.4%
72 | COc1cc(NC(=O)c2ccc(Br)o2)c(C(=O)O)cc1OC | inconclusive: 17%
73 | Cc1nnc(SCC(=O)Nc2cccc(C(F)(F)F)c2)[nH]c1=O | inconclusive: -30.7%
74 | COc1ccc(C(O)c2ncc(C(F)(F)F)cc2Cl)cc1 (configuration not stated) | inconclusive: -18.1%
75 | Cc1nc(-c2ccccc2)sc1-c1nc(-c2ccccc2)ncc1S(=O)(=O)c1ccccc1 | inconclusive: 27.6%
76 | CN=C1S/C(=C\c2cc(C)n(-c3ccccc3F)c2C)C(=O)N1C | inactive: 7.4%
77 | Cc1cccc(C)c1N(CC(=O)N1CCCC1)S(C)(=O)=O | inconclusive: -8.2%
78 | Cc1onc(-c2c(Cl)cccc2Cl)c1C(=O)N=S(C)(=O)c1ccccc1 (configuration not stated) | inconclusive: -110%
79 | COc1ccccc1C1NC(=O)NC(C)=C1C(=O)OC1CCCC(C)C1 (configuration not stated) | inconclusive: -33.8%
80 | CCc1ccc([C@@H]2CC(=O)[C@@H]3CN(S(=O)(=O)c4ccccc4C)[C@H](c4ccc(Cl)cc4)C[C@@H]3N2S(=O)(=O)c2ccc(C)cc2)cc1 | inactive: 4.6%
81 | Cn1c(C2=C(O)CN(Cc3ccccc3)C2=N)nc2ccccc21 | inactive: 3.1%
82 | Cc1ccc(OCC(=O)OC2CCS(=O)(=O)C2)cc1 (configuration not stated) | inconclusive: -2.7%
83 | C=C(C)c1cccc(C(C)(C)NC(=O)N2CCOCC2)c1 | inconclusive: -41.1%
84 | COc1ccc(Cc2nnc(NC(=O)c3ccc(OC(C)=O)cc3)s2)cc1OC | active: 34.6%
85 | Cc1ccc(N2C(=O)C3ON(c4ccccc4)C(c4ccncc4)C3C2=O)c(C)c1 (configuration not stated) | inactive: -1.8%
86 | CC(C)C1CC(C(=O)Nc2ccccc2)C(=O)O1 (configuration not stated) | inconclusive: -23.6%
87 | COc1ccc(-c2nc3ccccc3nc2-c2ccc(OC)cc2)cc1 | inconclusive: -10.7%
88 | O=S1(=O)CC(N2CCCCC2)CN1Cc1ccc(F)cc1 (configuration not stated) | inactive: -5.4%
89 | Cn1c(=O)c2c(ncn2CC(=O)N/N=C/C=C/c2ccco2)n(C)c1=O | inconclusive: -85.2%
90 | Cc1ccc2cc(CN(Cc3nnnn3C3CCCC3)C3CCCCC3)c(=O)[nH]c2c1C | inactive: 25.9%
91 | CC(C)(C)c1cc(NC(=O)Nc2ccc(Cl)cc2Cl)no1 | inconclusive: 31.1%
92 | O=C(C1=NN[C@@H]2C(=O)N(c3cccc(C(F)(F)F)c3)C(=O)[C@H]12)c1ccc2ccccc2n1 | inactive: -1.3%
